PubChem BioAssay AID1224830 | NIAID | 2016

- Aim: 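Genes whose knock-down alters the TNF-alpha reporter response to LPS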 (primary screen)
- System: human THP-1 monocytic leukaemia cells, TNF dual-luciferase reporter clone, PMA-differentiated to macrophage-like cells
- Reagents: siRNA pool against human genes, 50 nM
- Timing: LPS for 4 h, given about 3 days after siRNA transfection
- Conditions: bacterial LPS (TLR4 ligand), 10 ng/ml
- Detection: 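TNF firefly reporter luminescence divided by renilla, normalised to the plate median, then turned into a robust z-score for each replicate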
- Reading the numbers: TNF reporter robust z-score: higher = stronger TNF reporter response to LPS
- Active means: 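a well is active when its z-score exceeds 2.8 or falls below -1.5; control wells carry no call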
This is one part, drawn at random, of about 18,000 reagents tested. About 2,900 of all reagents (16%) count as active. 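Calls are made per well; low scores hint the gene aids the LPS response, high scores that it dampens it.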 Repeated entries: four replicate wells of each siRNA pool.

The opening 7 entries, to show the layout:
| target | TNF reporter robust z-score | call |
| --- | --- | --- |
| UCHL3 (ubiquitin C-terminal hydrolase L3) | 0.35 | inactive |
| UCHL3 (ubiquitin C-terminal hydrolase L3) | -1.31 | inactive |
| UCHL3 (ubiquitin C-terminal hydrolase L3) | -0.08 | inactive |
| UCHL3 (ubiquitin C-terminal hydrolase L3) | 0.4 | inactive |
| PSMD12 (proteasome 26S subunit, non-ATPase 12) | -1.21 | inactive |
| PSMD12 (proteasome 26S subunit, non-ATPase 12) | -1.71 | active |
| PSMD12 (proteasome 26S subunit, non-ATPase 12) | -1.03 | inactive |

The list itself, from the first entry:
| target | TNF reporter robust z-score | call |
| --- | --- | --- |
| UCHL3 (ubiquitin C-terminal hydrolase L3) | 0.35 | inactive |
| UCHL3 (ubiquitin C-terminal hydrolase L3) | -1.31 | inactive |
| UCHL3 (ubiquitin C-terminal hydrolase L3) | -0.08 | inactive |
| UCHL3 (ubiquitin C-terminal hydrolase L3) | 0.4 | inactive |
| PSMD12 (proteasome 26S subunit, non-ATPase 12) | -1.21 | inactive |
| PSMD12 (proteasome 26S subunit, non-ATPase 12) | -1.71 | active |
| PSMD12 (proteasome 26S subunit, non-ATPase 12) | -1.03 | inactive |
| PSMD12 (proteasome 26S subunit, non-ATPase 12) | -0.88 | inactive |
| DNAJA4 (DnaJ heat shock protein family (Hsp40) member A4) | -1.71 | active |
| DNAJA4 (DnaJ heat shock protein family (Hsp40) member A4) | -1.76 | active |
| DNAJA4 (DnaJ heat shock protein family (Hsp40) member A4) | -1.69 | active |
| DNAJA4 (DnaJ heat shock protein family (Hsp40) member A4) | -1.37 | inactive |
| PAOX (polyamine oxidase) | -1.16 | inactive |
| PAOX (polyamine oxidase) | -1.23 | inactive |
| PAOX (polyamine oxidase) | -1.24 | inactive |
| PAOX (polyamine oxidase) | -0.94 | inactive |
| OSBPL1A (oxysterol binding protein like 1A) | 0.38 | inactive |
| OSBPL1A (oxysterol binding protein like 1A) | 0.95 | inactive |
| OSBPL1A (oxysterol binding protein like 1A) | 1.28 | inactive |
| OSBPL1A (oxysterol binding protein like 1A) | 1 | inactive |
| VCF1 (VCP nuclear cofactor family member 1) | 0.7 | inactive |
| VCF1 (VCP nuclear cofactor family member 1) | 1.19 | inactive |
| VCF1 (VCP nuclear cofactor family member 1) | 1.99 | inactive |
| VCF1 (VCP nuclear cofactor family member 1) | 1.2 | inactive |
| VAMP2 (vesicle associated membrane protein 2) | 0.13 | inactive |
| VAMP2 (vesicle associated membrane protein 2) | 0.59 | inactive |
| VAMP2 (vesicle associated membrane protein 2) | 0.71 | inactive |
| VAMP2 (vesicle associated membrane protein 2) | 0.51 | inactive |
| GUCA2B (guanylate cyclase activator 2B) | 0.11 | inactive |
| GUCA2B (guanylate cyclase activator 2B) | 0.29 | inactive |
| GUCA2B (guanylate cyclase activator 2B) | 0.16 | inactive |
| GUCA2B (guanylate cyclase activator 2B) | 0.07 | inactive |
| THG1L (tRNA-histidine guanylyltransferase 1 like) | -0.1 | inactive |
| THG1L (tRNA-histidine guanylyltransferase 1 like) | 1.68 | inactive |
| THG1L (tRNA-histidine guanylyltransferase 1 like) | 1.07 | inactive |
| PRSS37 (serine protease 37) | -1.36 | inactive |
| PRSS37 (serine protease 37) | -1.05 | inactive |
| PRSS37 (serine protease 37) | -0.29 | inactive |
| PRSS37 (serine protease 37) | -0.61 | inactive |
| AGAP6 (ArfGAP with GTPase domain, ankyrin repeat and PH domain 6) | -0.75 | inactive |
| AGAP6 (ArfGAP with GTPase domain, ankyrin repeat and PH domain 6) | -0.58 | inactive |
| AGAP6 (ArfGAP with GTPase domain, ankyrin repeat and PH domain 6) | -0.39 | inactive |
| AGAP6 (ArfGAP with GTPase domain, ankyrin repeat and PH domain 6) | -0.41 | inactive |
| ISG20L2 (interferon stimulated exonuclease gene 20 like 2) | 0.7 | inactive |
| ISG20L2 (interferon stimulated exonuclease gene 20 like 2) | 1.06 | inactive |
| ISG20L2 (interferon stimulated exonuclease gene 20 like 2) | 0.51 | inactive |
| ISG20L2 (interferon stimulated exonuclease gene 20 like 2) | 0.67 | inactive |
| TBC1D19 (TBC1 domain family member 19) | 2.1 | inactive |
| TBC1D19 (TBC1 domain family member 19) | 2.2 | inactive |
| TBC1D19 (TBC1 domain family member 19) | 1.06 | inactive |
| TBC1D19 (TBC1 domain family member 19) | 0.68 | inactive |
| TICRR (TOPBP1 interacting checkpoint and replication regulator) | 3.72 | active |
| TICRR (TOPBP1 interacting checkpoint and replication regulator) | 2.06 | inactive |
| TICRR (TOPBP1 interacting checkpoint and replication regulator) | 3.43 | active |
| TICRR (TOPBP1 interacting checkpoint and replication regulator) | 3.74 | active |
| ZDHHC13 (zDHHC palmitoyltransferase 13) | 0.16 | inactive |
| ZDHHC13 (zDHHC palmitoyltransferase 13) | -0.12 | inactive |
| ZDHHC13 (zDHHC palmitoyltransferase 13) | -0.33 | inactive |
| ZDHHC13 (zDHHC palmitoyltransferase 13) | 0.69 | inactive |
| UBASH3B (ubiquitin associated and SH3 domain containing B) | 0.16 | inactive |
| UBASH3B (ubiquitin associated and SH3 domain containing B) | 0.15 | inactive |
| UBASH3B (ubiquitin associated and SH3 domain containing B) | 0.82 | inactive |
| UBASH3B (ubiquitin associated and SH3 domain containing B) | 0.08 | inactive |
| LSM10 (LSM10, U7 small nuclear RNA associated) | 0.09 | inactive |
| LSM10 (LSM10, U7 small nuclear RNA associated) | -1.19 | inactive |
| LSM10 (LSM10, U7 small nuclear RNA associated) | -1.03 | inactive |
| LSM10 (LSM10, U7 small nuclear RNA associated) | 0.02 | inactive |
| COLCA1 (colorectal cancer associated 1) | 0.54 | inactive |
| COLCA1 (colorectal cancer associated 1) | 0.21 | inactive |
| COLCA1 (colorectal cancer associated 1) | -0.07 | inactive |
| COLCA1 (colorectal cancer associated 1) | 0.62 | inactive |
| ZZZ3 (zinc finger ZZ-type containing 3) | 0.28 | inactive |
| ZZZ3 (zinc finger ZZ-type containing 3) | -0.01 | inactive |
| ZZZ3 (zinc finger ZZ-type containing 3) | -0.09 | inactive |
| ZZZ3 (zinc finger ZZ-type containing 3) | 0.23 | inactive |
| RORB (RAR related orphan receptor B) | 0.32 | inactive |
| RORB (RAR related orphan receptor B) | 0.63 | inactive |
| RORB (RAR related orphan receptor B) | -0.3 | inactive |
| RORB (RAR related orphan receptor B) | -0.02 | inactive |
| WDCP (WD repeat and coiled coil containing) | -0.23 | inactive |
| WDCP (WD repeat and coiled coil containing) | 0.68 | inactive |
| WDCP (WD repeat and coiled coil containing) | 0.51 | inactive |
| WDCP (WD repeat and coiled coil containing) | 2.69 | inactive |
| ART3 (ADP-ribosyltransferase 3 (inactive)) | -1.52 | active |
| ART3 (ADP-ribosyltransferase 3 (inactive)) | -1.43 | inactive |
| ART3 (ADP-ribosyltransferase 3 (inactive)) | -1.26 | inactive |
| ART3 (ADP-ribosyltransferase 3 (inactive)) | -1.47 | inactive |
| TAC4 (tachykinin precursor 4) | 2.87 | active |
| TAC4 (tachykinin precursor 4) | 3.86 | active |
| TAC4 (tachykinin precursor 4) | 2.06 | inactive |
| TAC4 (tachykinin precursor 4) | 1.61 | inactive |
| RPSA (ribosomal protein SA) | -0.74 | inactive |
| RPSA (ribosomal protein SA) | -0.79 | inactive |
| RPSA (ribosomal protein SA) | -0.65 | inactive |
| RPSA (ribosomal protein SA) | -1.09 | inactive |
| RAB9A (RAB9A, member RAS oncogene family) | 0.44 | inactive |
| RAB9A (RAB9A, member RAS oncogene family) | -1.22 | inactive |
| RAB9A (RAB9A, member RAS oncogene family) | -0.07 | inactive |
| RAB9A (RAB9A, member RAS oncogene family) | 0.61 | inactive |
| NOG (noggin) | -0.42 | inactive |
| NOG (noggin) | 0.11 | inactive |
| NOG (noggin) | -1.31 | inactive |
| NOG (noggin) | -0.63 | inactive |
| CADM3 (cell adhesion molecule 3) | -1.35 | inactive |
| CADM3 (cell adhesion molecule 3) | -0.8 | inactive |
| CADM3 (cell adhesion molecule 3) | -0.87 | inactive |
| CADM3 (cell adhesion molecule 3) | -0.43 | inactive |
| SLC35D1 | -0.59 | inactive |
| SLC35D1 | 0.57 | inactive |
| SLC35D1 | 0.41 | inactive |
| SLC35D1 | 0.4 | inactive |
| PLAA (phospholipase A2 activating protein) | 1.17 | inactive |
| PLAA (phospholipase A2 activating protein) | 0.52 | inactive |
| PLAA (phospholipase A2 activating protein) | 1.18 | inactive |
| PLAA (phospholipase A2 activating protein) | -0.01 | inactive |
| NUBP1 (NUBP iron-sulfur cluster assembly factor 1, cytosolic) | 0.8 | inactive |
| NUBP1 (NUBP iron-sulfur cluster assembly factor 1, cytosolic) | 0.46 | inactive |
| NUBP1 (NUBP iron-sulfur cluster assembly factor 1, cytosolic) | 2.22 | inactive |
| NUBP1 (NUBP iron-sulfur cluster assembly factor 1, cytosolic) | 1.71 | inactive |
| IQGAP1 (IQ motif containing GTPase activating protein 1) | -0.77 | inactive |
| IQGAP1 (IQ motif containing GTPase activating protein 1) | -0.57 | inactive |
| IQGAP1 (IQ motif containing GTPase activating protein 1) | -0.54 | inactive |
| IQGAP1 (IQ motif containing GTPase activating protein 1) | -0.9 | inactive |
| FRYL (FRY like transcription coactivator) | -0.5 | inactive |
| FRYL (FRY like transcription coactivator) | -0.59 | inactive |
| FRYL (FRY like transcription coactivator) | 0.11 | inactive |
| FRYL (FRY like transcription coactivator) | -0.61 | inactive |
| CPB1 (carboxypeptidase B1) | 0.22 | inactive |
| CPB1 (carboxypeptidase B1) | -0.41 | inactive |
| CPB1 (carboxypeptidase B1) | -0.23 | inactive |
| CPB1 (carboxypeptidase B1) | 0.21 | inactive |
| PLEKHN1 (pleckstrin homology domain containing N1) | -1.07 | inactive |
| PLEKHN1 (pleckstrin homology domain containing N1) | 2.16 | inactive |
| PLEKHN1 (pleckstrin homology domain containing N1) | 0.63 | inactive |
| PLEKHN1 (pleckstrin homology domain containing N1) | 0.43 | inactive |
| CCNG2 (cyclin G2) | -0.95 | inactive |
| CCNG2 (cyclin G2) | -0.39 | inactive |
| CCNG2 (cyclin G2) | -0.06 | inactive |
| CCNG2 (cyclin G2) | -1.12 | inactive |
| KCNE5 | 0.94 | inactive |
| KCNE5 | 0.08 | inactive |
| KCNE5 | 0.11 | inactive |
| KCNE5 | 2.11 | inactive |
